The list shows a part of the results.
Tests used:
Experiment in all cases: log2 fold change, soluble protein after heating vs DMSO (PISA); higher = thermal stabilisation; K562 cells, 10 uM, 30 min; active = over 0.2 and 3.5 SD of the protein, either way, in both replicates (recomputed)
[1] = compound: CC[C@@H]1C(=O)N(C)c2cnc(Nc3ccc(C(=O)NC4CCN(C)CC4)cc3OC)nc2N1C1CCCC1
Procedure, shortened: (§1)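 K562 cells at 2×10^6 cells/mL were treated with 10 μM compound for 30 min. Aliquots were heated for 3 min across 48°C-58°C, pooled, and extracted in PBS with 0.5% NP-40 at 4°C; soluble protein was the supernatant after 21,000xg for 90 min. Soluble protein was quantified by TMTpro 16plex LC-MS/MS with channel sums equalised, and reported as log2 fold change in thermal stability against DMSO controls, with values from duplicates.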

By UniProt entry, the sequences of proteins in these tests, tags left out. Where a name states a change or a piece, a line headed by the entry shows the natural chain unless it says otherwise.
UniProt P30281: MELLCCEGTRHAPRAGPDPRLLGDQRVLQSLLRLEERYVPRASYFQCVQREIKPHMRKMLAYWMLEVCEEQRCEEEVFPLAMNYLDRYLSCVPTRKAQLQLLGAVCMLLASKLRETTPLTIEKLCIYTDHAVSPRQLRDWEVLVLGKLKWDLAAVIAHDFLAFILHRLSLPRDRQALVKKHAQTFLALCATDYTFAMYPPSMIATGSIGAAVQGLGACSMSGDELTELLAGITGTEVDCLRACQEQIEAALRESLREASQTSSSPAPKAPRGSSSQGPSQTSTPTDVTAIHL
UniProt Q8N4S0: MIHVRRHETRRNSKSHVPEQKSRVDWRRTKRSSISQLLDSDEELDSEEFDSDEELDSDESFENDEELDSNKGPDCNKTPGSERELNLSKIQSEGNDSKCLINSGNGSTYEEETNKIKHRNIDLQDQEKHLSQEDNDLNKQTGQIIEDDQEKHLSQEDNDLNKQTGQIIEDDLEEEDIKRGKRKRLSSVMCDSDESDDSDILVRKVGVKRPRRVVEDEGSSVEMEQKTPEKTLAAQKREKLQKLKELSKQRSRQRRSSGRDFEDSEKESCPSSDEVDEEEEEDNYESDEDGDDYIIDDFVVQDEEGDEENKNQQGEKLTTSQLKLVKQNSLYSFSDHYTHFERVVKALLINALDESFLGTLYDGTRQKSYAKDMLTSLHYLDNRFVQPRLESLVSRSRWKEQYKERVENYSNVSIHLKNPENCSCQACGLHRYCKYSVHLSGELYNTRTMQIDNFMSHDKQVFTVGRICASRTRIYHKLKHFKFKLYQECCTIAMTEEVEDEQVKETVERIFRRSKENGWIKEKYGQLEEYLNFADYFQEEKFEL
UniProt Q7Z3E2: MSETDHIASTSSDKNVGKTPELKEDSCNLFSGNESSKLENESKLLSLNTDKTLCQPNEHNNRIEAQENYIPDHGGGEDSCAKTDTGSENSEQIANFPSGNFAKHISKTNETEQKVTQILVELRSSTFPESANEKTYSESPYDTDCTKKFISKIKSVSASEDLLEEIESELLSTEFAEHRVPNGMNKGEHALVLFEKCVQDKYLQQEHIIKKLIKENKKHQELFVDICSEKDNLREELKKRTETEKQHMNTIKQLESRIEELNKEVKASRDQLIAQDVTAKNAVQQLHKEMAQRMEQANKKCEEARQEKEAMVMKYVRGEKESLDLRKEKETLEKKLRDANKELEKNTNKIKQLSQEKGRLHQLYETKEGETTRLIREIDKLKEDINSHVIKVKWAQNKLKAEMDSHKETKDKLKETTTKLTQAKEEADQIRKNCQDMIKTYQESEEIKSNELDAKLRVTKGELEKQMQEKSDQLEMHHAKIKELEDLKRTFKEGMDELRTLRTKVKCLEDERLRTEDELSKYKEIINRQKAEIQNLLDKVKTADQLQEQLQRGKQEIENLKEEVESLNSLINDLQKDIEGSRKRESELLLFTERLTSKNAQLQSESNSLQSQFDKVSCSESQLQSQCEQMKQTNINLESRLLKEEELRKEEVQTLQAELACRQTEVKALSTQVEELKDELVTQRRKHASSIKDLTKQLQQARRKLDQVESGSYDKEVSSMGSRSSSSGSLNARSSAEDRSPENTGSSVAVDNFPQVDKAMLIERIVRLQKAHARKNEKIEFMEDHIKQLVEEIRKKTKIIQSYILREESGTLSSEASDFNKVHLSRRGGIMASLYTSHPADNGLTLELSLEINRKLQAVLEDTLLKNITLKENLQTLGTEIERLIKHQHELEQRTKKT
UniProt P0C221: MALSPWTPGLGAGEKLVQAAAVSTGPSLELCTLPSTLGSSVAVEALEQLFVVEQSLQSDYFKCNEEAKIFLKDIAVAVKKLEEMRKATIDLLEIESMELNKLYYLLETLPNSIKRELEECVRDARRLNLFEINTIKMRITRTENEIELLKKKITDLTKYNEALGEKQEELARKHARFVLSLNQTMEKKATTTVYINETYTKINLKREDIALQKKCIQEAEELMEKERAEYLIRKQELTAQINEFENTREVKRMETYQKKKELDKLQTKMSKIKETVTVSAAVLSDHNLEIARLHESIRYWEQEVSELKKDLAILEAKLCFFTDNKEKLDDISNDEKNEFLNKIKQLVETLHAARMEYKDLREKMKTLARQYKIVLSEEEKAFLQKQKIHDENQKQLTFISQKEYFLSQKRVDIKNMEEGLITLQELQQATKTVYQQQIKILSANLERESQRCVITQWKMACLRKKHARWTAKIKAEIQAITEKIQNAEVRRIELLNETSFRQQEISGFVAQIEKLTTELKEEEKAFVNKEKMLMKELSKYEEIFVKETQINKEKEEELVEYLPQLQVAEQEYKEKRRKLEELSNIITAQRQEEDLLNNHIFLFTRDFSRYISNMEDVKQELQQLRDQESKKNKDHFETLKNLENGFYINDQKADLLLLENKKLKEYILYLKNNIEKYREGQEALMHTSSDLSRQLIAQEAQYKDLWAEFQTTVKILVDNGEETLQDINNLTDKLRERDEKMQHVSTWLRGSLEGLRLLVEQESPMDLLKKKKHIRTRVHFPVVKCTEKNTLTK
UniProt Q96A19: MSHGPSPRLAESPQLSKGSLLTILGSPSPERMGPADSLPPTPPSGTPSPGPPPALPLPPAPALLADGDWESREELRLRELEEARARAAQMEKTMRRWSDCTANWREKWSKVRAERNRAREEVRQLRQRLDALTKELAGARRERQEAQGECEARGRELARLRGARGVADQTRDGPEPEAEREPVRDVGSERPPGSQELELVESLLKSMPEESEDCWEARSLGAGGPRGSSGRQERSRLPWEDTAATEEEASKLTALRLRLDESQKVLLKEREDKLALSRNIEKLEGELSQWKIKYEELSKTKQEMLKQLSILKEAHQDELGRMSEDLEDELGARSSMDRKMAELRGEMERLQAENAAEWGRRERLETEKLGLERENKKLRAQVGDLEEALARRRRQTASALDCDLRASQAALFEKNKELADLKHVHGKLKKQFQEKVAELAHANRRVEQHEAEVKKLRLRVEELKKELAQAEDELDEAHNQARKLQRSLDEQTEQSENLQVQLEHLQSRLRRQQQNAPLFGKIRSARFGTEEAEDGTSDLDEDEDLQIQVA

[2] = compound: CC[C@@H]1C(=O)N(C)c2cnc(Nc3ccc(C(=O)N[C@H]4CC[C@H](N5CCN(CC6CC6)CC5)CC4)cc3OC)nc2N1C(C)C [volasertib]
Procedure, shortened: as §1

[3] = compound: CC[C@H](C)[C@@H](C(=O)N[C@@H]([C@@H](C)O)C(=O)N[C@@H](CC(C)C)C(=O)[C@]1(CO1)C)NC(=O)[C@H]([C@@H](C)CC)N(C)C(=O)C [epoxomicin]
Procedure, shortened: as §1

[4] = compound: CCn1cc(-c2ccnc3[nH]c(-c4cccc(CN(C)C)c4)cc23)c(-c2ccc(NC(=O)N(C)C)cc2)n1
Procedure, shortened: as §1

[5] = compound: CN(C)CC(=O)Nc1ccc2[nH]c(=O)c3ccccc3c2c1
Procedure, shortened: as §1

[6] = compound: CN1C2=C(C3=C1C(=O)N(N=C3)CC4=CC(=CC=C4)N)SC(=C2)S(=O)C
Procedure, shortened: as §1

[7] = compound: CN1CCC(CNc2ccc3ncc(-c4cccc(OC(F)(F)F)c4)n3n2)CC1
Procedure, shortened: as §1

[8] = compound: CN1CCN(CCOc2cc(OC3CCOCC3)c3c(Nc4c(Cl)ccc5c4OCO5)ncnc3c2)CC1 [saracatinib]
Procedure, shortened: as §1

[9] = compound: CN1CCc2c(c3ccccc3n2Cc2ccc(C(=O)NO)cc2)C1 [Tubastatin A]
Procedure, shortened: as §1

[10] = compound: CNC(=O)C1=CC=CC=C1NC2=NC(=NC=C2Cl)NC3=C(C=C(C=C3)N4CCOCC4)OC
Procedure, shortened: as §1

[11] = compound: CNC(=O)c1ccc(Nc2ncc(C(F)(F)F)c(NCc3nccnc3N(C)S(C)(=O)=O)n2)cc1 [defactinib]
Procedure, shortened: as §1

[12] = compound: CNCc1ccc(-c2[nH]c3cc(F)cc4c3c2CCNC4=O)cc1 [rucaparib]
Procedure, shortened: as §1

[13] = compound: CNc1nc(-c2ccc3c(N)n[nH]c3c2)cc(N2C[C@@H](C(=O)NC3CCCCC3)CC[C@H]2C)n1
Procedure, shortened: as §1

[14] = compound: COC(=O)N[C@@H](C)CNc1nccc(-c2cn(C(C)C)nc2-c2cc(Cl)cc(NS(C)(=O)=O)c2F)n1 [encorafenib]
Procedure, shortened: as §1

[15] = compound: COC(=O)[C@H](CCSC)NC(=O)C1=C(C=C(C=C1)NC[C@H](CS)N)C2=CC=CC=C2
Procedure, shortened: as §1

[16] = compound: CC[C@H](C)N1C=C(C2=C(C=C(C=C21)C3=CN=C(C=C3)N4CCNCC4)C(=O)NCC5=C(C=C(NC5=O)C)C)C
Procedure, shortened: as §1

[17] = compound: CCn1c(C(=O)N(C2CC2)C2CC2)cc2c3c(ncn3C)c(Nc3cc(C)n(C)n3)nc21
Procedure, shortened: as §1

[18] = compound: CN(CCOC1=CC=C(C=C1)C[C@H]2C(=O)NC(=O)S2)C3=CC=CC=N3 (racemic) [rosiglitazone]
Procedure, shortened: as §1

[19] = compound: CN1CCN(c2nc(C3=C(c4c[nH]c5ccccc45)C(=O)NC3=O)c3ccccc3n2)CC1 [sotrastaurin]
Procedure, shortened: as §1

[20] = compound: CN1CC[C@H](c2c(O)cc(O)c3c(=O)cc(-c4ccccc4Cl)oc23)[C@H](O)C1 [alvocidib]
Procedure, shortened: as §1

Measured: log2 fold change

CCND3 (UniProt P30281)
active: [3] 0.363
inactive: [1] -0.085 | [2] 0.102 | [4] -0.021 | [5] -0.022 | [6] 0.063 | [7] -0.175 | [8] 0.03 | [9] 0.242 | [10] -0.018 | [11] -0.037 | [12] 0.113 | [13] -0.067 | [14] -0.11 | [15] 0

CCDC82 (UniProt Q8N4S0)
active: [2] -0.349
inactive: [1] -0.062 | [16] -0.018 | [3] 0.143 | [5] 0.001 | [6] -0.069 | [8] 0 | [9] 0.102 | [10] 0.03 | [11] -0.09 | [12] -0.069 | [13] -0.139 | [14] 0.021 | [15] -0.037

CCDC186 (UniProt Q7Z3E2)
inactive: [1] 0.154 | [16] -0.046 | [17] -0.089 | [4] 0.089 | [5] 0.048 | [18] 0.112 | [6] 0.087 | [7] -0.26 | [8] -0.03 | [19] 0.05 | [10] -0.309 | [11] -0.205 | [12] -0.056 | [13] -0.013 | [14] -0.038 | [15] -0.036

Two consecutive entries already listed:
CCDC82 (UniProt Q8N4S0)
active: [2] -0.349
inactive: [1] -0.062 | [16] -0.018 | [3] 0.143 | [5] 0.001 | [6] -0.069 | [8] 0 | [9] 0.102 | [10] 0.03 | [11] -0.09 | [12] -0.069 | [13] -0.139 | [14] 0.021 | [15] -0.037

CCDC186 (UniProt Q7Z3E2)
inactive: [1] 0.154 | [16] -0.046 | [17] -0.089 | [4] 0.089 | [5] 0.048 | [18] 0.112 | [6] 0.087 | [7] -0.26 | [8] -0.03 | [19] 0.05 | [10] -0.309 | [11] -0.205 | [12] -0.056 | [13] -0.013 | [14] -0.038 | [15] -0.036

Further results follow:

CCDC175 (UniProt P0C221)
inactive: [1] -0.068 | [2] -0.166 | [16] 0.007 | [17] 0.02 | [4] 0.009 | [5] -0.03 | [18] 0.199 | [6] 0.018 | [7] -0.113 | [8] -0.125 | [20] -0.1 | [10] -0.013 | [11] -0.029 | [12] -0.026 | [13] 0.059 | [14] 0.032 | [15] -0.021

CCDC102A (UniProt Q96A19)
inactive: [1] 0.262 | [2] 0.183 | [3] 0.054 | [17] -0.318 | [4] -0.03 | [5] 0.058 | [7] 0.041 | [20] 0.006 | [10] 0.102 | [11] -0.034 | [12] 0.029 | [14] -0.141 | [15] -0.19

— the supplement of paper PMC10849652
